Patent publication US11952384B2, “Anti-tumor compound and preparation method and use thereof” (DUALITY BIOLOGICS (SUZHOU) CO., LTD., priority 2020, dated 2024)
At least one structure is not confirmed: it was looked up by name or label, or the drawing left a doubt.

Biological target: T1, BCRP (Homo sapiens, UniProt Q9UNQ0)
T1 sequence (Q9UNQ0 1-655): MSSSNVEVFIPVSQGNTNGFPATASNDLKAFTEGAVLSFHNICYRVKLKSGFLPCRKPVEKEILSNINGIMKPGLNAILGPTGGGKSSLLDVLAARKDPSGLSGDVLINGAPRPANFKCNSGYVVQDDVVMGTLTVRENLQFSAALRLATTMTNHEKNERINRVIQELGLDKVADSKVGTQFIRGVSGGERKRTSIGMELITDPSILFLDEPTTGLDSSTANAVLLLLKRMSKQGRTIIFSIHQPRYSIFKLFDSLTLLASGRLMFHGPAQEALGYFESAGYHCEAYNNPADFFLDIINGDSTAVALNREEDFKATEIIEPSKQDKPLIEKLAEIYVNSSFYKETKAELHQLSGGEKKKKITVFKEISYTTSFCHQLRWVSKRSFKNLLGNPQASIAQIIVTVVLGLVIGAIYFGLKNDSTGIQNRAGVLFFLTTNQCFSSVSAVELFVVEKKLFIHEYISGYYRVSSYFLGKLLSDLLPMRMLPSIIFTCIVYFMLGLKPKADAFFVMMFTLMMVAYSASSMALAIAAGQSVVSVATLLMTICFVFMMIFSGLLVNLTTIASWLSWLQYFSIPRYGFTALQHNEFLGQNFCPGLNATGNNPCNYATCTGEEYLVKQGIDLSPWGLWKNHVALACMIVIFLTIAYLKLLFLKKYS
Test: Study on transporter substrates in Caco-2 cell model
Conditions: KO143 +

CC[C@@]1(O)C(=O)OCc2c1cc1n(c2=O)Cc2c-1nc1cc(F)c(C)c3c1c2[C@@H](NC(=O)CO)CC3 [Dxd, reference compound]
Efflux ratio: 21.23
